Experimental data: US20210348119A1, “COMPOSITIONS AND METHODS FOR CELL CULTURE” (The United States of America as Represented By The …, priority 2018, published 2021)

test system: H9 cells; experiment: qHTS for survival of dissociated H9 cells (CellTiter-Glo, 24 hours after seeding); assay type: cell-based, human; settings: curve class per Huang et al. 2011
Text: FIG. 2 schematically illustrates qHTS procedure.
All the screed compounds were received pre-plated at the pre-determined concentrations. […] Curve classification is explained in Huang et al. “Chemical genomics profiling of environmental chemical modulation of human nuclear receptors” Environ. Health. Perspect.

Going from `C=C(NC(=O)C(=C)NC(=O)c1csc(C2=N[C@@H]3c4csc(n4)[C@H]4NC(=O)c5csc(n5)[C@H]([C@](C)(O)[C@@H](C)O)NC(=O)[C@H]5CSC(=N5)/C(=C/C)NC(=O)[C@H]([C@@H](C)O)NC(=O)c5csc(n5)[C@]3(CC2)NC(=O)[C@H](C)NC(=O)C(=C)NC(=O)[C@H](C)NC(=O)[C@H]([C@@H](C)CC)N[C@@H]2C=Cc3c([C@H](C)O)cc(nc3[C@H]2O)C(=O)O[C@@H]4C)n1)C(N)=O` [Thiostrepton from Streptomyces azureus, Thiostrepton] to `Cc1sc2c(c1C)C(c1ccc(Cl)cc1)=N[C@@H](CC(=O)NCCCCNC(=O)COc1cccc3c1C(=O)N(C1CCC(=O)NC1=O)C3=O)c1nnc(C)n1-2` (stereo partly shown) [dBETI], the “CC (curve class)” value falls from 2 to −1.

First: CNc1nccc(-c2cccnc2Oc2cc(C(=O)Nc3cccc(C(F)(F)F)c3)ccc2C)n1 [AMG-Tie2-1]
Second: CC1=C(C(=O)Nc2cc3cn[nH]c3cc2F)C(c2ccc(C(F)(F)F)cc2)CC(=O)N1 (stereo not shown) [GSK-429286A]
The “CC (curve class)” value of the first is higher: 2 for the first, 1 for the second.

First: CC(C)(C)c1nc2c3cc[nH]c(=O)c3c3cc(F)ccc3c2[nH]1 [Pyridone 6]
Second: Cl.O=c1[nH]ccc2cc(OC3CCNCC3)ccc12 [SAR407899 (hydrochloride)]
The “CC (curve class)” value of the first is higher: 4 for the first, 1 for the second.

Going from `C[C@@H]1O[C@@H](O[C@H]2[C@H](O[C@H]3[C@H](O[C@H]4CC[C@@]5(C)C(CC[C@]6(C)C5CC=C5[C@@H]7CC(C)(C(=O)O)C[C@@H](O)[C@]7(C)CC[C@]56C)[C@@]4(C)CO)O[C@H](C(=O)O)[C@@H](O)[C@@H]3O)O[C@H](CO)[C@H](O)[C@@H]2O)[C@H](O)[C@H](O)[C@H]1O` (stereo partly shown) [NCGC00385739-01] to `CCCCCCCCCCCCCC(=O)O[C@@H]1[C@@H](C)[C@@]2(O)[C@@H](C=C(CO)C[C@]3(O)C(=O)C(C)=C[C@@H]23)[C@@H]2C(C)(C)[C@]12OC(C)=O` [Phorbol 12-myristate 13-acetate], the “CC (curve class)” value falls from 2 to 1.

Compared with `Cc1cncc2cccc(S(=O)(=O)N3CCCN(C(=O)CN)C[C@@H]3C)c12` [Glycyl-H-1152], `CC1CNCCN1S(=O)(=O)c1cccc2cnccc12.Cl.Cl` (stereo not shown) [1-(5-Isoquinolinylsulfonyl)-2-methylpipenvine dihydrochloride] is higher in “CC (curve class)” value: 1 for the first, 3 for the second.

`COc1ccc2c(c1)C[C@H](C(=O)Nc1ccc(-c3cn[nH]c3)cc1OCCN(C)C)CO2` [Chroman 1, (3S)—N-{2-[2-(Dimethylamino)ethoxy]-4-(1H-pyrazol-4-yl)phenyl}-6-methoxy-3,4-dihydro-2H-1-benzopyran-3-carboxamide] and `NC[C@@](O)(c1ccc(Cl)cc1)c1ccc(-c2cn[nH]c2)cc1` [AT-13148] are the same in “CC (curve class)” value: 1 for the first, 1 for the second.

First: Cl.Cl.O=S(=O)(NCCNC/C=C/c1ccc(Br)cc1)c1cccc2cnccc12 [H-89]
Second: Cl.NC(N)=NCCNS(=O)(=O)c1cccc2cnccc12 [HA-1004 hydrochloride]
The “CC (curve class)” value of the first is higher: 4 for the first, 1 for the second.

Going from `O=S(=O)(N=Cc1c(O)ccc2ccccc12)c1cccs1` [STF-083010] to `Cc1[nH]c2ccccc2c1CCNC(=O)c1cccs1` [CK-636], the “CC (curve class)” value rises from 2 to 4.

Going from `N#Cc1cccc(-c2c[nH]c3ncnc(N4CCOCC4)c23)c1` [PF-06447475] to `Cc1c[nH]c2ncnc(N3CCC(CN)(C(=O)Nc4cccc(OC(=O)N(C)C)c4)CC3)c12` [LX-7101], the “CC (curve class)” value rises from 3 to 4.

Going from `Cc1n[nH]c2ccc(-c3cncc(OC[C@@H](N)Cc4c[nH]c5ccccc45)c3)cc12` [A-443654] to `CN1CCN(Cc2ccc(-c3cnc4[nH]cc(-c5ccc6[nH]ccc6c5)c4c3)cc2)CC1` [URMC-099], the “CC (curve class)” value falls from 4 to 2.

`Cl.Cl.Fc1ccccc1CNCc1ccc(-c2ccnc3[nH]ccc23)cc1` [OXA 06 dihydrochloride] and `O=C(Nc1ccc(-c2ccncc2)cc1)N[C@H](CO)c1ccccc1` [AS 1892802] are the same in “CC (curve class)” value: 1 for the first, 1 for the second.

Compared with `C[C@H](NC(=O)C(=O)Nc1ccccc1C(C)(C)C)C(=O)N[C@@H](CC(=O)O)C(=O)COc1c(F)c(F)cc(F)c1F` [Emricasan, 3-(2-(2-tert-butylphenylaminooxalyl)aminopropionylamino)-4-oxo-5-(2,3,5,6-tetrafluorophenoxy)pentanoic acid], `CC(C)(C)c1nc(-c2cccc(NS(=O)(=O)c3c(F)cccc3F)c2F)c(-c2ccnc(N)n2)s1` [Dabrafenib] is lower in “CC (curve class)” value: 3 for the first, 2 for the second.

Going from `N#Cc1cc(F)cc(-c2nc(-c3ccccn3)no2)c1` [VU 0285683] to `Cn1c2ccccc2c2c3c(c4c5ccccc5n(CCC#N)c4c21)CNC3=O` [Go-6976], the “CC (curve class)” value falls from 4 to 2.

Going from `CN1CCN(c2nc(C3=C(c4c[nH]c5ccccc45)C(=O)NC3=O)c3ccccc3n2)CC1` [Sotrastaurin] to `O=c1[nH]c2ccc(Cl)cc2c(N[C@@H]2CN3CCC2CC3)c1-c1nc2ccccc2[nH]1` [CHIR-124], the “CC (curve class)” value rises from 2 to 4.

`Cn1c(=O)c2c(ncn2CC2OCCO2)n(C)c1=O` [Doxofylline] and `COCCOc1ccc2c(c1)ncn2-c1ccc2cccc(N3CCC(N)CC3)c2n1` [CP-673451] are the same in “CC (curve class)” value: 4 for the first, 4 for the second.

Compared with `O=C1NC(=O)C(=O)C(=O)N1` [ALLOXAN], `Nc1nc2nc[nH]c2c(=S)[nH]1` [Tioguanine] is higher in “CC (curve class)” value: 2 for the first, 4 for the second.

Going from `CCn1c(-c2nonc2N)nc2cnc(Oc3cccc(NC(=O)c4ccc(OCCN5CCOCC5)cc4)c3)cc21` [GSK-269962A] to `CCCCOc1c(C(=O)c2c(F)cc(C)cc2F)c[nH]c2nncc1-2` [BMS-265246], the “CC (curve class)” value falls from 2 to 1.

First: NS(=O)(=O)c1ccc(Nc2nc(OCC3CCCCC3)c3[nH]cnc3n2)cc1 [NU-6102]
Second: CNc1ccc([N+](=O)[O-])c(Nc2ccc3[nH]ncc3c2)n1 [KRIBB11]
The “CC (curve class)” value of the first is higher: 3 for the first, 1 for the second.

`CC(N/C(=N\C#N)Nc1ccncc1)C(C)(C)C` (stereo not shown) [Pinacidil] and `CC1CN(S(=O)(=O)c2cccc3cnccc23)CCN1.Cl.Cl` (stereo not shown) [1-05-IsoquinolinylstilfonyI)-3-methylpiperazine dihydroehloride] are the same in “CC (curve class)” value: 3 for the first, 3 for the second.

`CCCC1(C)C(C#N)(C#N)C1(C#N)C#N` [CCG-2046] and `O=S(=O)(c1cccc2cnccc12)N1CCNCC1` [HA-100] are the same in “CC (curve class)” value: 2 for the first, 2 for the second.

Going from `Oc1cccc2c(O)nccc12` [1,5-Isoquinolinediol] to `c1ccc2c3c([nH]c2c1)CNCC3` [tryptoline], the “CC (curve class)” value falls from 3 to −1.

`C[C@@H](N)[C@H]1CC[C@H](C(=O)Nc2ccncc2)CC1` [Y-27632] was tested, and the “CC (curve class)” value was 2 and 1.

Where “and” joins values, the source holds several entries; their conditions need not be identical. Equal values may be shown once.
